{"source": "PubChem BioAssay AID1259424 (University of Nebraska Medical Center, 2018)", "aim": "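Seek colon cancer survival genes behaving like KSR1, using a six-gene signature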 (primary screen)", "cells": "human HCT116 colon cancer cells", "knock-down reagent": "siRNA pool against human genes, 50 nM", "measured": "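Log2 levels of six mRNAs (branched-DNA multiplex), adjusted by two reference genes and the non-targeting median, then scored against the average KSR1 knockdown pattern as Pearson r and euclidean distance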", "reading the numbers": "mean correlation with KSR1 profile: higher = expression change more like KSR1 knockdown", "note": "This is a random part of about 14,000 deposited reagents. 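Higher correlation or smaller distance means closer resemblance to KSR1 loss; control wells, including KSR1 knockdowns, recur on many plates.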 Not all columns of the deposit are shown. Not stated in the record: the time to read-out."}
{"gene symbol":"IFNA17","mean correlation with KSR1 profile":0.19}
{"gene symbol":"PSMC3IP","mean correlation with KSR1 profile":0.66}
{"gene symbol":"SUMO1","mean correlation with KSR1 profile":-0.255}
{"gene symbol":"EML4","mean correlation with KSR1 profile":0.512}
{"gene symbol":"HDAC6","mean correlation with KSR1 profile":0.113}

Reformatted: results already given.
IFNA17 — mean correlation with KSR1 profile = 0.19
PSMC3IP — mean correlation with KSR1 profile = 0.66

Continued:
{"gene symbol":"PHF20L1","mean correlation with KSR1 profile":0.258}
{"gene symbol":"PLA2G7","mean correlation with KSR1 profile":0.268}
{"gene symbol":"GGCT","mean correlation with KSR1 profile":0.101}
{"gene symbol":"YTHDF1","mean correlation with KSR1 profile":0.0132}
{"gene symbol":"VPS11","mean correlation with KSR1 profile":-0.438}
{"gene symbol":"KIAA0232","mean correlation with KSR1 profile":-0.486}
{"gene symbol":"EFEMP1","mean correlation with KSR1 profile":0.0216}
